Source: US20120108667A1, “HYDROXY CERAMIDES AND ANALOGS THEREOF AND THEIR USE FOR PREVENTING OR TREATING CANCER” (priority 2010, published 2012)
Some of these results come from one statement about several compounds together. At least one structure is not confirmed: it was looked up by name or label, or the drawing left a doubt.

System: endogenous SPLs in MCF7 cells
Assay: LC-MS/MS analysis of endogenous SPLs in treated MCF7 cells
Type: cell-based, human
Details: 40 μM, 24 h
Procedure: MCF7 cells (breast adenocarcinoma, pleural effusion) were purchased from American type Culture Collection (ATCC, Rockville, Md., USA) and grown in RPMI 1640 media (Life Technologies, Inc) supplemented with 10% fetal calf serum (FCS, Summit Biotechnology, CO, USA) and maintained under standard incubator conditions (humidified atmosphere 95% air, 5% CO2, 37° C.). A parallel set of cells was used to determine cell proliferation and to prepare lipid extracts for MS analysis.
Advanced analyses were performed on a Thermo Finnigan TSQ 7000, triple-stage quadrupole mass spectrometer operating in a Multiple Reaction Monitoring (MRM) positive ionization mode as described (J. Bielawski, et al., Methods 39 (2006), p. 82; J. Bielawski, et al., Methods Mol. Biol. 579 (2009), p. 443). Quantitative analysis of the cellular level of 2′-OH—C6-Cers/dhCers and C6-Cer/dhCer was based on the calibration curves generated by spiking an artificial matrix with known amounts of target standards and an equal amount of the internal standard (IS). The target analyte to IS peak area ratios from the samples were similarly normalized to their respective IS and compared to the calibration curves using a linear regression model. Final results were expressed as the level of the particular SPLs/phospholipids (Pi) determined from the Bligh & Dyer lipid extract and expressed as SPLs/Pi (pmol/nmol).

Row | Compound | elevation of C16-Cer [fold]
1 | CCCCCCCCCCCCCCC[C@@H](O)[C@H](CO)NC(=O)CCCCC [C6-dhCer] | ≤ 50
2 | CCCCCCCCCCCCCCC[C@@H](O)[C@H](CO)NC(=O)[C@@H](O)CCCC [LCL466, (2S,3R,2′S)-2′-Hydroxy-C6-dihydroceramide] | ≤ 50
